From paper PMC8864489
No constants are given. Whether binding was seen depends on the method and setting. Some entries that bind do so weakly or less than the wild type. Where a sequence is shown, tags or fusion partners need not be part of it.

By UniProt entry, the sequences of proteins in these tests, tags left out. Where a name states a change or a piece, a line headed by the entry shows the natural chain unless it says otherwise. Chains listed by the source or under a name are the forms on record and can include a tag or linker.
Rab27A part of fRab27A-C188 (Q78L, C123S), Cys188 conjugated with A01 (P51159, form named): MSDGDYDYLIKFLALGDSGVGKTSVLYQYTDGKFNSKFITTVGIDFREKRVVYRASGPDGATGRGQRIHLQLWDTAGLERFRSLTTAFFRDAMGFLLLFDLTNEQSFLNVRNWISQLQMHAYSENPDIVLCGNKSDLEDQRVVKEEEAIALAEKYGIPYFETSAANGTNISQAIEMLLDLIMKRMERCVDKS

Molecular target: Rab27A part of fRab27A-C188 (Q78L, C123S), Cys188 conjugated with A01 (human) (UniProt P51159)
Experiment: crystal structure; Slp2a SHD1 (5-32) fused to the N-terminus of Rab27A via a poly glycine-serine linker on one chain; apo or with a covalent fragment (A01, B01) on a cysteine; both purified

## SFLTEEEQEAIMKVLQRDAALKRAEEER [Slp2a SHD1 (residues 5-32) part of fusion-Rab27A]
  binding: binds
